PubChem BioAssay AID504784 | Drosophila RNAi Screening Center, 2011

Screen: 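Fly genes whose silencing alters how much lipid cells keep in droplets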 (primary screen)
Cells: Drosophila Kc167 embryonic cells
Knock-down reagent: long dsRNA against Drosophila genes, about 250 ng dsRNA per well
Timing: 4 days
Treatment: cells fed 400 µM oleic acid bound to BSA
Detection: 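Microscope images give a droplet-to-nucleus area ratio, taken as log and converted to a screen-wide B-score; higher values mean greater lipid storage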
Scale: droplet/nuclear area B-score: higher = more stored lipid (overstorage)
The screen tested about 17,000 reagents; shown is a random part of those with a known target gene and a result. 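Each column is one replicate's B-score; the combined score over replicates was not deposited, so single values may mislead.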 Names joined by + are all predicted targets of the reagent. Further read-outs or replicates are left out here.

Nha1 (Na[+]/H[+] hydrogen antiporter 1) [DRSC02109] — droplet/nuclear area B-score, replicate 1: 0.263
CG12964 [DRSC06266] — droplet/nuclear area B-score, replicate 1: -0.166
CG12964 [DRSC23210] — droplet/nuclear area B-score, replicate 1: -1.08
Paip2 (polyA-binding protein interacting protein 2) [DRSC14504] — droplet/nuclear area B-score, replicate 1: 0.139
Dus3 (Dihydrouridine synthase 3) [DRSC02059] — droplet/nuclear area B-score, replicate 1: -0.219
Ccp84Aa [DRSC12586] — droplet/nuclear area B-score, replicate 1: -1.11
CG31278 [DRSC16051] — droplet/nuclear area B-score, replicate 1: 0.687
Ance-3 [DRSC02648] — droplet/nuclear area B-score, replicate 1: -0.107
Ance-3 [DRSC02649] — droplet/nuclear area B-score, replicate 1: -0.699
CG32365 [DRSC10040] — droplet/nuclear area B-score, replicate 1: 0.455
CG32365 [DRSC10041] — droplet/nuclear area B-score, replicate 1: -1.6
CG32365 [DRSC10977] — droplet/nuclear area B-score, replicate 1: 0.0111
Acp95EF (Accessory gland protein 95EF) [DRSC14102] — droplet/nuclear area B-score, replicate 1: -1.5
Hr51 (Hormone receptor 51) [DRSC06627] — droplet/nuclear area B-score, replicate 1: -0.216
Hr51 (Hormone receptor 51) [DRSC22829] — droplet/nuclear area B-score, replicate 1: -2.24
Acsl (Acyl-CoA synthetase long-chain) [DRSC07252] — droplet/nuclear area B-score, replicate 1: -3.29
IPIP (Inositol phosphatase interacting protein) [DRSC02164] — droplet/nuclear area B-score, replicate 1: 1.98
CG7781 [DRSC03068] — droplet/nuclear area B-score, replicate 1: -0.209
CG30412 [DRSC04564] — droplet/nuclear area B-score, replicate 1: 0.0196
Pka-R1 (Protein kinase, cAMP-dependent, regulatory subunit type 1) [DRSC11674] — droplet/nuclear area B-score, replicate 1: -1.66
Pka-R1 (Protein kinase, cAMP-dependent, regulatory subunit type 1) [DRSC11875] — droplet/nuclear area B-score, replicate 1: -1.84
CG5246 [DRSC15751] — droplet/nuclear area B-score, replicate 1: 0.0343
CG33791 + CG12105 + CG18170 [DRSC08387] — droplet/nuclear area B-score, replicate 1: -0.34
CG11951 [DRSC14442] — droplet/nuclear area B-score, replicate 1: 0.348
schuy (schumacher-levy) [DRSC10284] — droplet/nuclear area B-score, replicate 1: 1.57
Npc2f (Niemann-Pick type C-2f) [DRSC15980] — droplet/nuclear area B-score, replicate 1: -0.0895
CG4194 [DRSC18520] — droplet/nuclear area B-score, replicate 1: 0.718
CG3032 [DRSC18266] — droplet/nuclear area B-score, replicate 1: 0.631
CG42749 [DRSC18091] — droplet/nuclear area B-score, replicate 1: -0.612
CG42749 [DRSC18092] — droplet/nuclear area B-score, replicate 1: -0.0386
CG10298 [DRSC12522] — droplet/nuclear area B-score, replicate 1: 2.12
Scp2 (Sarcoplasmic calcium-binding protein 2) [DRSC13166] — droplet/nuclear area B-score, replicate 1: 0.0382
Scp2 (Sarcoplasmic calcium-binding protein 2) [DRSC16854] — droplet/nuclear area B-score, replicate 1: 0.0731
CG32564 [DRSC19933] — droplet/nuclear area B-score, replicate 1: 0.295
CG32269 + CG32270 [DRSC08195] — droplet/nuclear area B-score, replicate 1: -0.516
Oseg2 (Outer segment 2) [DRSC08343] — droplet/nuclear area B-score, replicate 1: 1.01
wkd (whacked) [DRSC15777] — droplet/nuclear area B-score, replicate 1: -1.28
CG13994 [DRSC02326] — droplet/nuclear area B-score, replicate 1: 0.706
CG15547 [DRSC15085] — droplet/nuclear area B-score, replicate 1: -0.713
CtsK1 (Cathepsin K1) [DRSC08742] — droplet/nuclear area B-score, replicate 1: 1.16
CG8586 [DRSC07218] — droplet/nuclear area B-score, replicate 1: 2.7
sns (sticks and stones) [DRSC06423] — droplet/nuclear area B-score, replicate 1: 2.52
sns (sticks and stones) [DRSC07687] — droplet/nuclear area B-score, replicate 1: 0.822
sns (sticks and stones) [DRSC07688] — droplet/nuclear area B-score, replicate 1: 0.261
sns (sticks and stones) [DRSC07689] — droplet/nuclear area B-score, replicate 1: -1.27
sns (sticks and stones) [DRSC07691] — droplet/nuclear area B-score, replicate 1: -1.71
sns (sticks and stones) [DRSC07692] — droplet/nuclear area B-score, replicate 1: -0.824
CG3706 [DRSC18649] — droplet/nuclear area B-score, replicate 1: -2.12
CG13026 [DRSC09906] — droplet/nuclear area B-score, replicate 1: 0.0103
alpha-Spec (alpha Spectrin) [DRSC08704] — droplet/nuclear area B-score, replicate 1: 0.236
nolo (no long nerve cord) [DRSC03705] — droplet/nuclear area B-score, replicate 1: 0.213
nolo (no long nerve cord) [DRSC03719] — droplet/nuclear area B-score, replicate 1: -0.00229
nolo (no long nerve cord) [DRSC03720] — droplet/nuclear area B-score, replicate 1: -0.306

Reprinted from the entries so far, 5 entries:
Pka-R1 (Protein kinase, cAMP-dependent, regulatory subunit type 1) [DRSC11674] — droplet/nuclear area B-score, replicate 1: -1.66
Pka-R1 (Protein kinase, cAMP-dependent, regulatory subunit type 1) [DRSC11875] — droplet/nuclear area B-score, replicate 1: -1.84
CG5246 [DRSC15751] — droplet/nuclear area B-score, replicate 1: 0.0343
CG33791 + CG12105 + CG18170 [DRSC08387] — droplet/nuclear area B-score, replicate 1: -0.34
CG11951 [DRSC14442] — droplet/nuclear area B-score, replicate 1: 0.348
